Laboratory results: PubChem BioAssay AID1224830 (NIAID, 2016)
This is an unselected part of about 18,000 reagents. In the full data, about 2,900 (16%) are marked active. 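Calls are made per well; low scores hint the gene aids the LPS response, high scores that it dampens it.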 Repeated entries: four replicate wells of each siRNA pool.

- Aim: 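Host factors that control LPS-induced TNF expression in human macrophages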 (primary screen)
- Cells: human THP-1 monocytic leukaemia cells, TNF dual-luciferase reporter clone, PMA-differentiated to macrophage-like cells
- Reagents: siRNA pool against human genes, 50 nM
- Timing: LPS for 4 h, given about 3 days after siRNA transfection
- Challenge: bacterial LPS (TLR4 ligand), 10 ng/ml
- Read-out: 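TNF firefly reporter luminescence divided by renilla, normalised to the plate median, then turned into a robust z-score for each replicate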
- Reading the numbers: TNF reporter robust z-score: higher = stronger TNF reporter response to LPS
- Hit rule: 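Each well counts as active if its z-score is over 2.8 or under -1.5; controls are left without a call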

| Gene | TNF reporter robust z-score | Outcome |
| --- | --- | --- |
| CDC42EP2 (CDC42 effector protein 2) | -0.03 | inactive |
| CDC42EP2 (CDC42 effector protein 2) | 0.62 | inactive |
| CDC42EP2 (CDC42 effector protein 2) | -0.59 | inactive |
| CDC42EP2 (CDC42 effector protein 2) | 0.65 | inactive |
| CD69 (CD69 molecule) | 1.71 | inactive |
| CD69 (CD69 molecule) | 1.55 | inactive |
| CD69 (CD69 molecule) | 0.57 | inactive |
| CD69 (CD69 molecule) | 2.19 | inactive |
| TKTL2 (transketolase like 2) | -1.08 | inactive |
| TKTL2 (transketolase like 2) | -0.65 | inactive |
| TKTL2 (transketolase like 2) | -1.47 | inactive |
| TKTL2 (transketolase like 2) | -0.9 | inactive |
| POTED (POTE ankyrin domain family member D) | -0.95 | inactive |
| POTED (POTE ankyrin domain family member D) | -0.02 | inactive |
| POTED (POTE ankyrin domain family member D) | -0.41 | inactive |
| POTED (POTE ankyrin domain family member D) | -0.2 | inactive |
| DOCK1 (dedicator of cytokinesis 1) | 0.32 | inactive |
| DOCK1 (dedicator of cytokinesis 1) | 0.35 | inactive |
| DOCK1 (dedicator of cytokinesis 1) | 0.86 | inactive |
| DOCK1 (dedicator of cytokinesis 1) | -0.19 | inactive |
| PDS5A (PDS5 cohesin associated factor A) | 0.68 | inactive |
| PDS5A (PDS5 cohesin associated factor A) | 0.58 | inactive |
| PDS5A (PDS5 cohesin associated factor A) | 1.54 | inactive |
| PDS5A (PDS5 cohesin associated factor A) | -0.15 | inactive |
| KIF9 (kinesin family member 9) | 0.43 | inactive |
| KIF9 (kinesin family member 9) | 0.08 | inactive |
| KIF9 (kinesin family member 9) | 0.64 | inactive |
| KIF9 (kinesin family member 9) | -0.6 | inactive |
| PARD3 (par-3 family cell polarity regulator) | -1.47 | inactive |
| PARD3 (par-3 family cell polarity regulator) | -1.49 | inactive |
| PARD3 (par-3 family cell polarity regulator) | -1.05 | inactive |
| PARD3 (par-3 family cell polarity regulator) | -0.78 | inactive |
| AKR7L (aldo-keto reductase family 7 like (gene/pseudogene)) | -0.09 | inactive |
| AKR7L (aldo-keto reductase family 7 like (gene/pseudogene)) | -0.95 | inactive |
| AKR7L (aldo-keto reductase family 7 like (gene/pseudogene)) | -0.13 | inactive |
| AKR7L (aldo-keto reductase family 7 like (gene/pseudogene)) | -0.39 | inactive |
| TAP1 (transporter 1, ATP binding cassette subfamily B member) | -0.67 | inactive |
| TAP1 (transporter 1, ATP binding cassette subfamily B member) | -1.32 | inactive |
| TAP1 (transporter 1, ATP binding cassette subfamily B member) | -0.86 | inactive |
| TAP1 (transporter 1, ATP binding cassette subfamily B member) | -0.38 | inactive |
| TOP6BL (TOP6B like initiator of meiotic double strand breaks) | 0.05 | inactive |
| TOP6BL (TOP6B like initiator of meiotic double strand breaks) | -0.01 | inactive |
| TOP6BL (TOP6B like initiator of meiotic double strand breaks) | 0.09 | inactive |
| TOP6BL (TOP6B like initiator of meiotic double strand breaks) | 0.47 | inactive |
| CEACAM19 (CEA cell adhesion molecule 19) | -0.71 | inactive |
| CEACAM19 (CEA cell adhesion molecule 19) | -0.26 | inactive |
| CEACAM19 (CEA cell adhesion molecule 19) | -0.97 | inactive |
| CEACAM19 (CEA cell adhesion molecule 19) | -0.73 | inactive |
| EDNRA (endothelin receptor type A) | 0.16 | inactive |
| EDNRA (endothelin receptor type A) | -0.28 | inactive |
| EDNRA (endothelin receptor type A) | 0.67 | inactive |
| EDNRA (endothelin receptor type A) | 0.06 | inactive |
| MYH10 (myosin heavy chain 10) | 1.05 | inactive |
| MYH10 (myosin heavy chain 10) | 0.87 | inactive |
| MYH10 (myosin heavy chain 10) | 0.89 | inactive |
| MYH10 (myosin heavy chain 10) | 1.55 | inactive |
| SPATA31H1 (SPATA31 subfamily H member 1) | 1.44 | inactive |
| SPATA31H1 (SPATA31 subfamily H member 1) | 1.11 | inactive |
| SPATA31H1 (SPATA31 subfamily H member 1) | 1.2 | inactive |
| SPATA31H1 (SPATA31 subfamily H member 1) | 0.8 | inactive |
| PSAPL1 (prosaposin like 1) | 1.98 | inactive |
| PSAPL1 (prosaposin like 1) | 1.79 | inactive |
| PSAPL1 (prosaposin like 1) | 2.6 | inactive |
| PSAPL1 (prosaposin like 1) | 2.18 | inactive |
| AAGAB (alpha and gamma adaptin binding protein) | 1.84 | inactive |
| AAGAB (alpha and gamma adaptin binding protein) | 1.13 | inactive |
| AAGAB (alpha and gamma adaptin binding protein) | 0.54 | inactive |
| AAGAB (alpha and gamma adaptin binding protein) | 2.17 | inactive |
| MOBP (myelin associated oligodendrocyte basic protein) | -1.24 | inactive |
| MOBP (myelin associated oligodendrocyte basic protein) | -1.04 | inactive |
| MOBP (myelin associated oligodendrocyte basic protein) | -0.98 | inactive |
| MOBP (myelin associated oligodendrocyte basic protein) | -0.44 | inactive |
| SLITRK5 (SLIT and NTRK like family member 5) | 0.26 | inactive |
| SLITRK5 (SLIT and NTRK like family member 5) | 0.25 | inactive |
| SLITRK5 (SLIT and NTRK like family member 5) | -0.14 | inactive |
| SLITRK5 (SLIT and NTRK like family member 5) | 0.21 | inactive |
| SPTBN4 (spectrin beta, non-erythrocytic 4) | -0.1 | inactive |
| SPTBN4 (spectrin beta, non-erythrocytic 4) | -0.23 | inactive |
| SPTBN4 (spectrin beta, non-erythrocytic 4) | -0.01 | inactive |
| SPTBN4 (spectrin beta, non-erythrocytic 4) | -0.35 | inactive |
| ARSB (arylsulfatase B) | -0.55 | inactive |
| ARSB (arylsulfatase B) | -0.68 | inactive |
| ARSB (arylsulfatase B) | -0.23 | inactive |
| ARSB (arylsulfatase B) | -0.31 | inactive |
| NCOR2 (nuclear receptor corepressor 2) | -1.1 | inactive |
| NCOR2 (nuclear receptor corepressor 2) | -0.49 | inactive |
| NCOR2 (nuclear receptor corepressor 2) | -0.45 | inactive |
| NCOR2 (nuclear receptor corepressor 2) | 0.32 | inactive |
| ZSCAN5B (zinc finger and SCAN domain containing 5B) | -0.13 | inactive |
| ZSCAN5B (zinc finger and SCAN domain containing 5B) | 0.76 | inactive |
| ZSCAN5B (zinc finger and SCAN domain containing 5B) | -0.52 | inactive |
| ZSCAN5B (zinc finger and SCAN domain containing 5B) | -0.8 | inactive |
| NBEA (neurobeachin) | -1.17 | inactive |
| NBEA (neurobeachin) | 2.21 | inactive |
| NBEA (neurobeachin) | 0.85 | inactive |
| NBEA (neurobeachin) | 4.23 | active |
| PLOD1 (procollagen-lysine,2-oxoglutarate 5-dioxygenase 1) | -0.83 | inactive |
| PLOD1 (procollagen-lysine,2-oxoglutarate 5-dioxygenase 1) | -0.8 | inactive |
| PLOD1 (procollagen-lysine,2-oxoglutarate 5-dioxygenase 1) | -0.52 | inactive |
| PLOD1 (procollagen-lysine,2-oxoglutarate 5-dioxygenase 1) | -0.99 | inactive |
| STEAP4 (STEAP4 metalloreductase) | -0.12 | inactive |
| STEAP4 (STEAP4 metalloreductase) | 0.36 | inactive |
| STEAP4 (STEAP4 metalloreductase) | -0.04 | inactive |
| STEAP4 (STEAP4 metalloreductase) | 0.73 | inactive |
| DYNC1H1 (dynein cytoplasmic 1 heavy chain 1) | -0.76 | inactive |
| DYNC1H1 (dynein cytoplasmic 1 heavy chain 1) | -1.39 | inactive |
| DYNC1H1 (dynein cytoplasmic 1 heavy chain 1) | -1.67 | active |
| DYNC1H1 (dynein cytoplasmic 1 heavy chain 1) | -0.53 | inactive |
| TAF5L (TATA-box binding protein associated factor 5 like) | 1.3 | inactive |
| TAF5L (TATA-box binding protein associated factor 5 like) | 1.47 | inactive |
| TAF5L (TATA-box binding protein associated factor 5 like) | 0.24 | inactive |
| TAF5L (TATA-box binding protein associated factor 5 like) | 0.81 | inactive |
| NHERF2 (NHERF family PDZ scaffold protein 2) | -0.46 | inactive |
| NHERF2 (NHERF family PDZ scaffold protein 2) | 0.56 | inactive |
| NHERF2 (NHERF family PDZ scaffold protein 2) | 0.77 | inactive |
| NHERF2 (NHERF family PDZ scaffold protein 2) | 0.75 | inactive |
| ABRAXAS1 (abraxas 1, BRCA1 A complex subunit) | 0.54 | inactive |
| ABRAXAS1 (abraxas 1, BRCA1 A complex subunit) | 0.17 | inactive |
| ABRAXAS1 (abraxas 1, BRCA1 A complex subunit) | 1.3 | inactive |
| ABRAXAS1 (abraxas 1, BRCA1 A complex subunit) | 0.45 | inactive |
| DPP3 (dipeptidyl peptidase 3) | -0.71 | inactive |
| DPP3 (dipeptidyl peptidase 3) | 0.2 | inactive |
| DPP3 (dipeptidyl peptidase 3) | 3.4 | active |
| DPP3 (dipeptidyl peptidase 3) | 0.84 | inactive |
| CENPC (centromere protein C) | 3.36 | active |
| CENPC (centromere protein C) | -0.37 | inactive |
| CENPC (centromere protein C) | 2.27 | inactive |
| CENPC (centromere protein C) | 1.19 | inactive |
| SRSF4 (serine and arginine rich splicing factor 4) | 0.37 | inactive |
| SRSF4 (serine and arginine rich splicing factor 4) | 0.77 | inactive |
| SRSF4 (serine and arginine rich splicing factor 4) | 1.3 | inactive |
| SRSF4 (serine and arginine rich splicing factor 4) | 1.58 | inactive |
| MAPK1 (mitogen-activated protein kinase 1) | -0.32 | inactive |
| MAPK1 (mitogen-activated protein kinase 1) | 0.11 | inactive |
| MAPK1 (mitogen-activated protein kinase 1) | 0.13 | inactive |
| MAPK1 (mitogen-activated protein kinase 1) | -0.58 | inactive |
| HACD1 (3-hydroxyacyl-CoA dehydratase 1) | -0.21 | inactive |
| HACD1 (3-hydroxyacyl-CoA dehydratase 1) | 0.21 | inactive |
| HACD1 (3-hydroxyacyl-CoA dehydratase 1) | 1.14 | inactive |
| HACD1 (3-hydroxyacyl-CoA dehydratase 1) | 1.52 | inactive |

A run of entries from the list above, for reference:
| Gene | TNF reporter robust z-score | Outcome |
| --- | --- | --- |
| STEAP4 (STEAP4 metalloreductase) | -0.12 | inactive |
| STEAP4 (STEAP4 metalloreductase) | 0.36 | inactive |
| STEAP4 (STEAP4 metalloreductase) | -0.04 | inactive |
| STEAP4 (STEAP4 metalloreductase) | 0.73 | inactive |
| DYNC1H1 (dynein cytoplasmic 1 heavy chain 1) | -0.76 | inactive |
| DYNC1H1 (dynein cytoplasmic 1 heavy chain 1) | -1.39 | inactive |
| DYNC1H1 (dynein cytoplasmic 1 heavy chain 1) | -1.67 | active |
| DYNC1H1 (dynein cytoplasmic 1 heavy chain 1) | -0.53 | inactive |
| TAF5L (TATA-box binding protein associated factor 5 like) | 1.3 | inactive |
| TAF5L (TATA-box binding protein associated factor 5 like) | 1.47 | inactive |
| TAF5L (TATA-box binding protein associated factor 5 like) | 0.24 | inactive |
| TAF5L (TATA-box binding protein associated factor 5 like) | 0.81 | inactive |
| NHERF2 (NHERF family PDZ scaffold protein 2) | -0.46 | inactive |
| NHERF2 (NHERF family PDZ scaffold protein 2) | 0.56 | inactive |
| NHERF2 (NHERF family PDZ scaffold protein 2) | 0.77 | inactive |
| NHERF2 (NHERF family PDZ scaffold protein 2) | 0.75 | inactive |
| ABRAXAS1 (abraxas 1, BRCA1 A complex subunit) | 0.54 | inactive |
| ABRAXAS1 (abraxas 1, BRCA1 A complex subunit) | 0.17 | inactive |
| ABRAXAS1 (abraxas 1, BRCA1 A complex subunit) | 1.3 | inactive |
| ABRAXAS1 (abraxas 1, BRCA1 A complex subunit) | 0.45 | inactive |
